The exact form of at least one protein or probe is not confirmed. For some assays here: A weaker result is weaker than the reference pair of the same experiment.
Experiments:
[1] = test system: CasDinG N-terminal domain deletion; assay: fluorescence anisotropy; conditions: 5 mM Mg2+, binding not impaired vs WT; 100 mM Tris pH 8.0, 1 mM TCEP, 5 mM MgCl2, +/- 1 mM AMP-PNP, 10 nM FAM-ssDNA, CasDinG 0-2.5 uM, room temperature; recombinant protein; protein details: StrepII; single-stranded DNA
[2] = test system: CasDinG arch domain deletion; assay: fluorescence anisotropy; conditions: 5 mM Mg2+, binding impaired vs WT; 100 mM Tris pH 8.0, 1 mM TCEP, 5 mM MgCl2, +/- 1 mM AMP-PNP, 10 nM FAM-ssDNA, CasDinG 0-2.5 uM, room temperature; recombinant protein; protein details: StrepII; single-stranded DNA

Sequence: TCGTCACCAGTACAAACTACAACGCCTGTAGCATTCCACA [40 nt ssDNA (oligo 7)]
- binding result [1]: binds
- binding result [2]: binds more weakly
